The values that follow come from patent publication US10738094B2, “Peptides and combination of peptides for use in immunotherapy against ovarian cancer and other cancers” (immatics biotechnologies GmbH, priority 2015, dated 2020).

The test system of this data set is NSCLC tumor samples. More on the design: species or system human. The following applies: median number of copies per cell in NSCLC tumor samples.

Consider “408 (VLDDSIYLV; listed as Homo sapiens) [compound 408]”, for which the “Copy Number Category” value is reported as “++ (>=100 = ++)”. Regarding “587 (VMNDRLYAI; listed as Homo sapiens) [compound 587]”, the “Copy Number Category” value is recorded as “++ (>=100 = ++)”.
